PubChem BioAssay AID1259308, NCATS – 2017
This is one part, drawn at random, of about 59,000 reagents tested. Of all reagents, about 1,510 (2.6%) were called active. 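Calls use total luciferase alone and ignore viability, so some active siRNAs may act by altering cell number.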 Reagents against one gene are numbered here. Not all columns of the deposit are shown. No sequences are given here.

Test: 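Candidate targets for better recombinant protein yield in mammalian cells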 (primary screen)
System: human HEK293 embryonic kidney cells stably expressing firefly luciferase (HEK-CMV-Luc2-Hygro)
Knock-down reagent: single siRNA against human genes, 0.8 pmol siRNA per well
Duration: 72 h
Read-out: 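Luciferase light (ONE-Glo) measured on one replicate plate set and viability (CellTiter-Glo) on the other, scaled to a negative control siRNA, with robust z-scores and luciferase per cell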
Direction: total luciferase, z-score and total luciferase, % of control: higher = more reporter protein produced
Rule for the call: 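Active when the median/MAD z-score for overall luciferase is greater than 3; a gene was taken forward for validation with new siRNAs if at least two of its three siRNAs passed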
Calls: active = raised luciferase; inactive = no rise

Target gene | reagent no. | total luciferase, z-score | total luciferase, % of control | call
PTMS | 1 | 1.2 | 106 | inactive
PTMS | 2 | 0.439 | 90.6 | inactive
PTMS | 3 | 0.931 | 100 | inactive
CEP126 | 1 | -1.22 | 57.6 | inactive
CEP126 | 2 | 0.144 | 84.7 | inactive
CEP126 | 3 | 0.155 | 85 | inactive
VGLL3 | 1 | 1.08 | 103 | inactive
VGLL3 | 2 | 0.584 | 93.5 | inactive
VGLL3 | 3 | 2.89 | 139 | inactive
PRDM12 | 1 | -2.53 | 31.5 | inactive
PRDM12 | 2 | 2.67 | 135 | inactive
PRDM12 | 3 | -0.239 | 77.1 | inactive
OR1J4 | 1 | -1.14 | 59.2 | inactive
OR1J4 | 2 | 1.89 | 120 | inactive
OR1J4 | 3 | -0.0914 | 80.1 | inactive
SERPINB13 | 1 | 0.713 | 96.1 | inactive
SERPINB13 | 2 | -0.836 | 65.3 | inactive
SERPINB13 | 3 | -0.163 | 78.6 | inactive
NRM | 1 | 0.966 | 101 | inactive
NRM | 2 | 0.223 | 86.3 | inactive
NRM | 3 | 0.126 | 84.4 | inactive
OR6C74 | 1 | 0.83 | 98.4 | inactive
OR6C74 | 2 | -0.0349 | 81.2 | inactive
OR6C74 | 3 | -0.808 | 65.8 | inactive
LEMD1-DT | 1 | -0.904 | 63.9 | inactive
LEMD1-DT | 2 | 2.73 | 136 | inactive
LEMD1-DT | 3 | 0.256 | 87 | inactive
TMEM33 | 1 | 1.51 | 112 | inactive
TMEM33 | 2 | 0.571 | 93.2 | inactive
TMEM33 | 3 | 2.5 | 132 | inactive
PERM1 | 1 | 0.112 | 84.1 | inactive
PERM1 | 2 | 0.527 | 92.4 | inactive
PERM1 | 3 | 0.442 | 90.7 | inactive
SLC46A1 | 1 | -0.583 | 70.3 | inactive
SLC46A1 | 2 | -1.99 | 42.2 | inactive
SLC46A1 | 3 | -0.95 | 63 | inactive

Entries listed so far whose gene name starts with S or s (6):
Target gene | reagent no. | total luciferase, z-score | total luciferase, % of control | call
SERPINB13 | 1 | 0.713 | 96.1 | inactive
SERPINB13 | 2 | -0.836 | 65.3 | inactive
SERPINB13 | 3 | -0.163 | 78.6 | inactive
SLC46A1 | 1 | -0.583 | 70.3 | inactive
SLC46A1 | 2 | -1.99 | 42.2 | inactive
SLC46A1 | 3 | -0.95 | 63 | inactive

More records follow:
Target gene | reagent no. | total luciferase, z-score | total luciferase, % of control | call
OLFML2A | 1 | -0.307 | 75.8 | inactive
OLFML2A | 2 | -2.08 | 40.5 | inactive
OLFML2A | 3 | 1.22 | 106 | inactive
PLPP1 | 1 | -1.26 | 56.8 | inactive
PLPP1 | 2 | -0.731 | 67.3 | inactive
PLPP1 | 3 | -0.979 | 62.4 | inactive
MFN2 | 1 | -1.26 | 56.9 | inactive
MFN2 | 2 | 3.36 | 149 | active
MFN2 | 3 | -0.884 | 64.3 | inactive
PDE8A | 1 | -0.217 | 77.6 | inactive
PDE8A | 2 | 2.53 | 132 | inactive
PDE8A | 3 | 0.287 | 87.6 | inactive
ICE1 | 1 | 5.28 | 187 | active
ICE1 | 2 | 2.02 | 122 | inactive
ICE1 | 3 | 1.53 | 112 | inactive
CWC22 | 1 | 1.81 | 118 | inactive
CWC22 | 2 | 2.55 | 133 | inactive
CWC22 | 3 | 0.603 | 93.9 | inactive
PNLIPRP1 | 1 | 0.809 | 98 | inactive
PNLIPRP1 | 2 | 0.203 | 85.9 | inactive
PNLIPRP1 | 3 | 0.942 | 101 | inactive
CENPM | 1 | -0.0713 | 80.5 | inactive
CENPM | 2 | -0.831 | 65.4 | inactive
CENPM | 3 | -0.145 | 79 | inactive
YIPF5 | 1 | 1.37 | 109 | inactive
YIPF5 | 2 | 0.182 | 85.5 | inactive
YIPF5 | 3 | 0.568 | 93.2 | inactive
NUDT6 | 1 | 2.18 | 125 | inactive
NUDT6 | 2 | 0.708 | 96 | inactive
NUDT6 | 3 | -1.18 | 58.4 | inactive
RAMP3 | 1 | 0.568 | 93.2 | inactive
RAMP3 | 2 | 0.614 | 94.1 | inactive
RAMP3 | 3 | 1.45 | 111 | inactive
ALPK1 | 1 | 1.35 | 109 | inactive
ALPK1 | 2 | -0.621 | 69.5 | inactive
ALPK1 | 3 | 0.0922 | 83.7 | inactive
TEC | 1 | 1.47 | 111 | inactive
TEC | 2 | 1.8 | 118 | inactive
TEC | 3 | 0.0707 | 83.3 | inactive
